PubChem BioAssay AID504744 | Drosophila RNAi Screening Center – 2011
Test: 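Identify dsRNAs that increase or decrease phospho-dAkt after insulin treatment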 (primary screen). Cell system: Drosophila Kc167 cells. Knock-down reagent: long dsRNA against Drosophila genes, 250 ng dsRNA per well of a 384-well plate. Duration: 3 days of knock-down, then overnight serum-free starvation before stimulation. Conditions: bovine insulin at 387 nM for 10 minutes after 12 h without serum. Read-out: 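Per-well phospho-dAkt level from an in-cell fluorescent antibody stain, divided by a DNA-dye signal; log2 residuals turned into z-scores that take cell number into account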. Call rule: 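Under insulin, a gene counts as a hit if the average z-score of two replicates lies above 2.5 or below -2.5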.
The screen tested about 23,000 reagents; this is a random part of those with a known target gene and a result. In the full data, 98 (0.43%) are marked active. 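Only hit calls are given; the phospho-dAkt signals, z-scores and hit direction were not deposited.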 A plus sign joins genes that one reagent is predicted to hit. No sequences are given here.

no.	gene	amplicon	Outcome
1	Cpr49Ae	DRSC07201	inactive
2	CG15638	DRSC01875	inactive
3	wisp	DRSC19703	inactive
4	pn	DRSC18822	inactive
5	CG7379	DRSC16237	inactive
6	CG30466	DRSC05556	inactive
7	sip1	DRSC03609	inactive
8	sip1	DRSC22648	inactive
9	CG13884	DRSC08354	inactive
10	CG30269	DRSC04158	inactive
11	nod	DRSC18900	inactive
12	nod	DRSC20356	inactive
13	CG32461	DRSC11594	inactive
14	tefu	DRSC16060	inactive
15	CG34047 (retired record)	DRSC07857	inactive
16	CG34047 (retired record)	DRSC21689	inactive
17	CG18234	DRSC10309	inactive
18	Jon65Aiv	DRSC10644	inactive
19	mew	DRSC18971	inactive
20	mew	DRSC20352	inactive
21	jub	DRSC19367	inactive
22	MFS3	DRSC00664	inactive
23	CG3604	DRSC00618	inactive
24	CG4133	DRSC00639	inactive
25	Vamp7	DRSC06599	inactive
26	CG13627	DRSC14629	inactive
27	Sgs1	DRSC00787	inactive
28	Sgs1	DRSC00848	inactive
29	Pgm2b	DRSC05978	inactive
30	fsd	DRSC06166	inactive
31	CG31087	DRSC14253	inactive
32	CG32237	DRSC08312	inactive
33	CG32237	DRSC08315	inactive
34	CG7945 + yellow-k	DRSC10851	inactive
35	Sid	DRSC16588	inactive
36	CG5126	DRSC00680	inactive
37	knk	DRSC15993	inactive
38	CG10086	DRSC14183	inactive
39	CG14204	DRSC19559	inactive
40	MsR1	DRSC08615	inactive
41	Grip84	DRSC20248	inactive
42	betaTub65B	DRSC11393	inactive
43	IFT46	DRSC02462	inactive
44	CG13066	DRSC09949	inactive
45	CG31562 (retired record)	DRSC12273	inactive
46	CG31562 (retired record)	DRSC12274	inactive
47	stops	DRSC15095	inactive
48	stops	DRSC15096	inactive
49	stops	DRSC15097	inactive
50	Pfdn5	DRSC16183	inactive
51	SNF4Agamma	DRSC13461	inactive
52	SNF4Agamma	DRSC13463	inactive
53	SNF4Agamma	DRSC15879	inactive
54	SNF4Agamma	DRSC16847	active
55	Nepl5	DRSC03241	inactive
56	CG4318	DRSC19887	inactive
57	CG14693	DRSC14916	inactive
58	melt	DRSC11367	inactive
59	CG8516	DRSC16437	inactive
60	CG1785	DRSC18139	inactive
61	cutlet	DRSC00284	inactive
62	ms(3)K81	DRSC14746	inactive
63	CG9521	DRSC20196	inactive
64	Tektin-C	DRSC09741	inactive
65	SmD3	DRSC07553	inactive
66	CG8407	DRSC07167	inactive
67	CG14174	DRSC10175	inactive
68	CG10931	DRSC06015	inactive
69	CG42523	DRSC00251	inactive
70	MTF-1	DRSC08983	inactive
71	MTF-1	DRSC11217	inactive
72	MTF-1	DRSC21341	inactive
73	Jhbp11	DRSC15183	inactive
74	trc	DRSC11406	inactive
75	Obp56a	DRSC06085	inactive
76	SsRbeta	DRSC11290	inactive
77	Nnk	DRSC15274	inactive
78	CG34310	DRSC00943	inactive
79	CG2061	DRSC19348	inactive
80	CG32445	DRSC11678	inactive
81	CG8072	DRSC10960	inactive
82	CG5969	DRSC11789	inactive
83	Mst98Cb	DRSC16750	inactive
84	Mst98Cb	DRSC22495	inactive
85	CG12479	DRSC19459	inactive
86	Nup154	DRSC03384	inactive
87	Osi23	DRSC15074	inactive
88	tx (retired record)	DRSC16931	inactive
89	CG11300	DRSC04104	inactive
90	CG8353	DRSC03084	inactive
91	CG11409	DRSC18579	inactive
92	CG10730	DRSC02102	inactive
93	CG1698	DRSC06640	inactive
94	CG31510	DRSC14182	active
95	HLH3B	DRSC18669	inactive
96	Bro	DRSC08149	inactive
97	CG17050 (retired record)	DRSC06651	inactive
98	CG7772	DRSC20056	inactive
99	CG3040	DRSC22486	inactive
100	CG2611	DRSC02710	inactive
101	Best3	DRSC09880	inactive
102	CG12911	DRSC06226	inactive
103	kmr	DRSC12986	inactive
104	kmr	DRSC14827	inactive
105	kmr	DRSC14828	inactive
106	kmr	DRSC16472	inactive
107	Rpi	DRSC04583	inactive
108	CG30099	DRSC07039	inactive
109	CkIIalpha-i3	DRSC08651	inactive
110	CG4951	DRSC15682	inactive
111	Ask1	DRSC16789	inactive
112	Ask1	DRSC21697	inactive
113	CG14100	DRSC10101	inactive
114	CG31266	DRSC15747	inactive
115	CG7755	DRSC07040	inactive
116	msk	DRSC11340	inactive
117	Irbp	DRSC17007	inactive
118	CG6959	DRSC16151	inactive
119	CG32751	DRSC21770	inactive
120	CR42785	DRSC04962	inactive
121	lawc (retired record)	DRSC22531	inactive
122	AIF	DRSC00696	inactive
123	Cht7 + tRNA:Cys-GCA-1-4 + tRNA:Lys-CTT-1-13	DRSC08021	inactive
124	dve	DRSC04680	inactive
125	Caf1-55	DRSC16596	inactive
126	ATPsynbeta	DRSC17194	inactive
127	Ccdc39	DRSC12286	inactive
128	CG4328	DRSC10410	inactive
129	CG4238	DRSC00090	inactive
130	CG4238	DRSC00644	inactive
131	Cpr65Ea	DRSC11027	inactive
132	Ssl2	DRSC14395	inactive
133	Ssl2	DRSC22796	inactive
134	PGRP-LB	DRSC14926	inactive
135	CG11836	DRSC14396	inactive
136	Lrr47	DRSC03365	inactive
137	Ripalpha	DRSC02657	inactive
138	Snmp1	DRSC16168	inactive
139	CG34155	DRSC13991	inactive
140	RhoBTB	DRSC11877	inactive
141	CG17047	DRSC06648	inactive
142	Dhfr	DRSC16646	inactive
143	CG42809 + CG42810	DRSC02532	inactive
144	CG42809 + CG42810	DRSC02533	inactive
145	CG3061	DRSC15460	inactive
146	RhoU	DRSC17635	inactive
147	RhoU	DRSC17803	inactive
148	RhoU	DRSC17804	inactive
149	RhoU	DRSC22159	inactive
150	RhoU	DRSC22396	inactive
151	heix	DRSC03542	inactive
152	CG12773	DRSC18580	inactive
153	lace	DRSC03564	inactive
154	Elba1	DRSC00276	inactive
155	CG15111	DRSC21467	inactive
156	BaraB	DRSC06420	inactive
157	ChLD3	DRSC02640	inactive
